Values joined by “and” are separate entries in the source; they are usually repeats but may differ in a detail not shown here. Equal values may be shown once. Some of the results follow. The main result of the screen is listed elsewhere. These columns were measured beside it and carry no call. Most of these compounds were active or inconclusive in the main read-out, so they are no random draw. Potencies come from curve fits of mixed quality, noted in brackets.

The assay is described as follows: qHTS Assay for Modulators of Lamin A Splicing. Conditions: HeLa LMNA splicing GFP/RFP minigene ratio, 48 h. A digest of the protocol: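 S3 HeLa cells stably expressing lamin A-EGFP splicing minigene plus DsRed2, 600 cells/well, 48 h compound exposure at 37C. Laser-scanning cytometry; analysed as GFP (500-530 nm)/RFP (575-640 nm) total intensity ratio; 0.5% DMSO vehicle.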
(In general: Quantitative high-throughput screening tests each substance at several concentrations.)

Setting [1] is: measured here: RFP viability control channel.
Where [2] appears, read: measured here: GFP splicing reporter channel.

By AC50 is commonly meant the concentration at which the activity in the assay is half-maximal. In the case of `CC(C)c1ccccc1NC(=O)c1ccccc1NC(=O)C1CCCCC1`, the AC50 under setting [1] was 12.6 µM [rising, partial curve].

Regarding `O=C(NCc1ccccc1)c1c[nH]c2ccc(S(=O)(=O)Nc3ccc4c(c3)OCCO4)cc2c1=O`, the half-maximal activity concentration (AC50) under setting [2] is 22.4 µM [rising, single point] and the concentration at half-maximal activity (AC50) under setting [1] is 22.4 µM [rising, single point].

In the case of `COc1cccc(OC)c1C(=O)NNC(=O)c1cccc(COc2ccc3c(c2)CCC3)c1`, the AC50 under setting [1] was 22.4 µM [rising, single point].

Regarding `COc1ccc(NC(=O)c2ccc(CN3CCN(c4ccccc4)CC3)cc2)cc1OC`, the concentration at half-maximal activity (AC50) under setting [1] is 14.1 µM [rising, partial curve].

As to `O=Cc1ccccc1OCCOc1ccccc1C=O`, the half-maximal activity concentration (AC50) under setting [2] is 35.5 µM [falling, single point].

`CCC(C)NC(=O)c1cccc(NC(=O)c2nsc3ccccc23)c1` (centres undefined): the AC50 under setting [1] was 3.98 µM [falling, full curve, poor fit].

For the molecule `COCCn1c(=O)c(-c2ccc(Cl)cc2)nc2cnc(OCc3ccccc3)nc21`, the AC50 under setting [1] was 17.8 µM [falling, single point].

For the molecule `COC(=O)c1c(NC(=O)c2cccc([N+](=O)[O-])c2)sc(C(N)=O)c1C`, the AC50 under setting [2] was 0.00316 µM [rising, full curve, poor fit].

Turning to `COC(=O)[C@@H]1[C@@H]2C[C@H]3c4[nH]c5ccccc5c4CCN3C[C@@H]2CC[C@@H]1O`, the concentration at half-maximal activity (AC50) under setting [1] is 3.16 µM [falling, single point] and 355 nM [falling, full curve] and 89.1 nM [falling, full curve, poor fit].

As for `COc1cccc(Cn2c(=O)cnc3cnc(Nc4cccc(OC)c4)nc32)c1`, the AC50 under setting [2] was 8.91 µM [falling, partial curve] and the AC50 under setting [1] was 10 µM [falling, partial curve].

Turning to `O=C(O)CC/C(=C\c1cc([N+](=O)[O-])ccc1Cl)c1nc2ccccc2s1`, the AC50 under setting [2] was 3.16 µM [rising, full curve, poor fit].

Turning to `CCN(CC)CCNC(=O)c1c(C)[nH]c(/C=C2\C(=O)Nc3ccc(F)cc32)c1C`, under setting [2], the AC50 is 0.0141 µM [falling, full curve].

`Cc1ccc(-c2noc(CCC(=O)NCCN3CCc4ccccc4C3)n2)cc1`: under setting [1], the half-maximal activity concentration (AC50) is 35.5 µM [rising, single point].

For `CC1(C)Cc2c(sc3c2c(=N)n(Cc2ccco2)c(=O)n3Cc2ccc(F)cc2)CO1`, the AC50 by setting is: under setting [2], 17.8 µM [rising, single point]; under setting [1], 5.62 µM [rising, single point].

On to `CCOc1ccc(Cn2c(CNS(=O)(=O)c3cccc(Cl)c3)nc3cccnc32)cc1`, for which the AC50 is 1.12 µM [falling, full curve, poor fit] under setting [2] and 3.98 µM [falling, partial curve, poor fit] under setting [1].

On to `CCC(C(=O)OCC(=O)NC(=O)NC(C)(C)C)c1ccccc1` (centres undefined), for which the AC50 under setting [1] is 6.31 µM [falling, partial curve].

For `O=C(NNc1ccccc1)C(=O)N1CCCCC1`, the concentration at half-maximal activity (AC50) under setting [1] was 35.5 µM [rising, single point].

With `COc1ccc(-c2nc3ccc(NS(=O)(=O)c4ccc(Cl)cc4)cc3o2)cc1`, the half-maximal activity concentration (AC50) runs as follows: under setting [2], 22.4 µM [falling, partial curve]; under setting [1], 14.1 µM [falling, partial curve].

Take `Cc1cc(N=Nc2ccc(Cl)cc2)cc(CN2CCOCC2)c1O`: the AC50 was 12.6 µM [rising, partial curve, poor fit] under setting [2] and 25.1 µM [rising, single point] under setting [1].

For the molecule `CCOC(=O)c1cc2sccc2n1Cc1ccc(C#N)cc1`, the AC50 under setting [1] was 0.562 µM [rising, full curve].

Turning to `CCOc1ccc(NC(=O)CC2C(=O)NCCN2C(=O)c2ccc(Cl)cc2)cc1` (centres undefined), under setting [1], the concentration at half-maximal activity (AC50) is 2.82 µM [falling, partial curve, poor fit].

`Cc1ccc(CNC(=O)C2=CCN(S(=O)(=O)c3ccc(C)cc3)CC2)cc1`: the AC50 under setting [1] was 7.08 µM [rising, full curve, poor fit].

With `Cc1cccc(OCCn2c(SCC(=O)O)nc3ccccc32)c1`, the concentration at half-maximal activity (AC50) under setting [1] is 3.98 µM [falling, partial curve, poor fit].

Take `CSc1ncnc2c1ncn2C1OC(CO)C(O)C1O` (centres undefined): the concentration at half-maximal activity (AC50) is 0.355 µM [rising, full curve] under setting [2] and 0.126 µM [rising, full curve, poor fit] under setting [1].

As to `COc1ccc(OC)c(/C=N/Nc2nncn2/N=C/c2cc(OC)ccc2OC)c1`, the half-maximal activity concentration (AC50) by setting is: under setting [2], 11.2 µM [rising, single point]; under setting [1], 12.6 µM [rising, partial curve].

As for `COc1ccccc1NC(=O)CSc1ccc(-c2cccs2)nn1`, under setting [2], the AC50 is 14.1 µM [falling, single point].

Consider `O=C1c2ccccc2NC(c2cn[nH]c2-c2ccc(Cl)cc2)N1O` (centres undefined), for which the AC50 is, setting by setting: under setting [2], 8.91 µM [rising, partial curve]; under setting [1], 12.6 µM [rising, partial curve].

Take `O=C(COc1ccc(C(=O)c2ccccc2)cc1)NCC(=O)Nc1ccccc1Br`: the concentration at half-maximal activity (AC50) was 14.1 µM [rising, partial curve, poor fit] under setting [2] and 15.8 µM [rising, partial curve] under setting [1].

With `COc1cccc2c(=S)c(CCC(C)=O)c(C)[nH]c12`, the half-maximal activity concentration (AC50) under setting [2] is 12.6 µM [rising, partial curve, poor fit].

Regarding `O=c1ccc2ccc(OCc3nnc(-c4ccccc4Br)o3)cc2o1`, the AC50 under setting [1] is 12.6 µM [rising, single point].

As for `CCOC(=O)c1c(NC(=O)c2cccs2)sc2c1CCN(C(=O)OCC)C2`, the AC50 reads like this: under setting [2], 12.6 µM [falling, single point]; under setting [1], 14.1 µM [falling, single point].

On to `CCC1(c2ccccc2)NC(=O)N(CC#N)C1=O` (centres undefined), for which the half-maximal activity concentration (AC50) under setting [1] was 0.0891 µM [falling, full curve, poor fit].

With `O=C(COC(=O)C12CC3CC(CC(O)(C3)C1)C2)NC12CC3CC(CC(C3)C1)C2`, the concentration at half-maximal activity (AC50) under setting [2] is 0.251 µM [rising, full curve, poor fit].

Turning to `Cc1c(C(=O)NCc2ccco2)sc2nc(-c3ccccc3)cn12`, the concentration at half-maximal activity (AC50) under setting [1] was 12.6 µM [rising, partial curve, poor fit].

On to `Nc1nc(Nc2ccccc2)nc2c1ncn2[C@@H]1O[C@H](CO)[C@H](O)[C@H]1O`, for which the AC50 is, setting by setting: under setting [2], 25.1 µM [falling, single point]; under setting [1], 0.000891 µM [falling, full curve, poor fit].

As to `Cc1cc(S(=O)(=O)NCC(C)C)ccc1OCC(=O)NCc1ccccn1`, the concentration at half-maximal activity (AC50) under setting [2] was 5.62 µM [rising, partial curve, poor fit].

For the molecule `Cc1cc(NS(=O)(=O)c2ccccc2)cc(Cl)c1O`, the AC50 under setting [2] is 31.6 µM [rising, single point].

Take `CC#CC[N+](C)(C)CCCCCCCCCCCC`: the AC50 under setting [2] was 3.55 µM [rising, full curve] and the AC50 under setting [1] is 8.91 µM [rising, partial curve].

For `COc1cccc(-c2ccc3ncnc(NCc4cccnc4)c3c2)c1`, the AC50 is 17.8 µM [falling, partial curve] under setting [2] and 10 µM [falling, partial curve] under setting [1].

As for `Cc1ccc(NS(=O)(=O)c2ccc3c(c2)c(=O)n(C)c(=O)n3C)cc1F`, the AC50 under setting [1] is 35.5 µM [rising, single point].

Regarding `Cc1ccc2[nH]c3c(N4CCN(Cc5ccccc5)CC4)ncnc3c2c1`, the concentration at half-maximal activity (AC50) is, setting by setting: under setting [2], 11.2 µM [rising, partial curve]; under setting [1], 12.6 µM [rising, partial curve].

Consider `CCN1C(=O)c2cccc3c(NC(=O)c4ccc(S(=O)(=O)N(C)C)cc4)ccc1c23`, for which, under setting [1], the concentration at half-maximal activity (AC50) was 31.6 µM [rising, single point].

For `Cc1noc(C)c1CSc1ncnc2sc3c(c12)CCC(C)C3` (centres undefined), the concentration at half-maximal activity (AC50) under setting [2] is 35.5 µM [rising, single point] and the AC50 under setting [1] was 35.5 µM [rising, single point].

Regarding `CC(C)C(C(=O)OCC(=O)c1ccccc1)N1C(=O)C2C3C=CC(C3)C2C1=O` (centres undefined), the concentration at half-maximal activity (AC50) under setting [2] was 0.141 µM [rising, full curve, poor fit].

For the molecule `O=C(NCc1ccccc1)Nc1cccn(Cc2ccccc2)c1=O`, the half-maximal activity concentration (AC50) under setting [1] is 17.8 µM [rising, partial curve].

`Cc1ccc2c(c1)nnn2C1CCN(CC(=O)Nc2ccc3c(c2)OCCO3)CC1`: the AC50 under setting [1] is 11.2 µM [rising, single point].

Turning to `CCOC(=O)c1c(NC(=O)C2=C(C)NC(=S)NC2c2ccc(F)cc2)sc(C)c1C` (centres undefined), the AC50 is 11.2 µM [rising, partial curve] under setting [2] and 25.1 µM [rising, single point] under setting [1].

For `COc1ccc(N2CCN(CCCNC(=O)Cn3c(-c4cccs4)cc4ccccc43)CC2)cc1`, the AC50 under setting [2] was 11.2 µM [falling, partial curve].

As to `O=C(CCSc1ccccc1Cl)Nc1cccc([N+](=O)[O-])c1`, the AC50 runs as follows: under setting [2], 11.2 µM [rising, single point]; under setting [1], 20 µM [rising, single point].

As to `O=C(Nc1ccc(Cl)cc1C(=O)NCc1cccnc1)c1ccc(Cl)cc1Cl`, the AC50 under setting [1] was 2 µM [rising, partial curve].

Regarding `Fc1ccc(/C=N/NC2=Nc3cccc4cccc2c34)cc1`, the concentration at half-maximal activity (AC50) reads like this: under setting [2], 35.5 µM [falling, single point]; under setting [1], 35.5 µM [falling, single point].

With `Cc1ccc(C(=O)/C=C/c2cn(CC(O)CN3CCOCC3)c3ccccc23)cc1` (centres undefined), under setting [1], the half-maximal activity concentration (AC50) was 11.2 µM [rising, partial curve, poor fit].

On to `Cc1cc(C(=O)CSc2n[nH]c(-c3ccccc3F)n2)c(C)n1Cc1cccs1`, for which the half-maximal activity concentration (AC50) under setting [1] is 22.4 µM [rising, single point].

On to `CCN(CC)CCCN(C(=O)c1cccs1)c1nc(-c2ccc(OC)cc2)cs1`, for which the concentration at half-maximal activity (AC50) under setting [2] was 35.5 µM [rising, single point].

Regarding `CC(NC(=O)/C(=C/c1ccc(OC(F)F)cc1)c1ccccc1)c1ccccc1` (centres undefined), the AC50 under setting [1] was 22.4 µM [rising, single point].

Source of the values: PubChem BioAssay AID1487 (National Center for Advancing Translational Sciences (NCATS), 2009).
